Assay results published in PMC5688089.
These are yes or no findings as the source states them, for the method shown. In cells and extracts the contact can be indirect. Some entries that bind do so weakly or less than the wild type.

Protein sequences, listed by entry. Tags and fused reporters are not part of them. Residues count along the entry.
UniProt P20491, residues 19-86: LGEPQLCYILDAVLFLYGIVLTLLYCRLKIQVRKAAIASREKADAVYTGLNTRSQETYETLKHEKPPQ
UniProt P29351: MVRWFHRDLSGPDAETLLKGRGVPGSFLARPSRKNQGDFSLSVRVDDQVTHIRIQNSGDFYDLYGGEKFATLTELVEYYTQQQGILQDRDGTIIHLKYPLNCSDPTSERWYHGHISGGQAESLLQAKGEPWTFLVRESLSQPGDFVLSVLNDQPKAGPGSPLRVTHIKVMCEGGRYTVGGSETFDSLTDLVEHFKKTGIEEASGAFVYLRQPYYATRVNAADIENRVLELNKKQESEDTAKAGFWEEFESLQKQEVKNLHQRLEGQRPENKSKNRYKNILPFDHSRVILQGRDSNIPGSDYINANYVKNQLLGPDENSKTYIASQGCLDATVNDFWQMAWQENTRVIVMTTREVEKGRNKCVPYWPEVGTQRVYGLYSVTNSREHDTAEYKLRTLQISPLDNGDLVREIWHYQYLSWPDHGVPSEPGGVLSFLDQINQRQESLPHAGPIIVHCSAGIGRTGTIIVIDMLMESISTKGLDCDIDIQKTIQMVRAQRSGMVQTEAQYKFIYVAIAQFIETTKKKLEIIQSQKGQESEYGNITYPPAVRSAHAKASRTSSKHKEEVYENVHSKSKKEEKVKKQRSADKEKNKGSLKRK

How the values were obtained:
[1] = target: T1, TNF receptor-associated factor 6 (TRAF6) (mouse (endogenous in BMMs)) (UniProt P70196); test: co-IP; endogenous proteins from lysates of mouse BMMs (WT or DJ-1 KO) starved 5 h and stimulated with RANKL (100 ng/ml), with or without H2O2 (100 μM); lysis in 20 mM HEPES pH 7.5, 150 mM NaCl, 1% Nonidet P-40, 60 mM octyl β-glucoside; overnight at 4 °C with specific antibodies, protein A/G-agarose; immunoblot
T1 sequence: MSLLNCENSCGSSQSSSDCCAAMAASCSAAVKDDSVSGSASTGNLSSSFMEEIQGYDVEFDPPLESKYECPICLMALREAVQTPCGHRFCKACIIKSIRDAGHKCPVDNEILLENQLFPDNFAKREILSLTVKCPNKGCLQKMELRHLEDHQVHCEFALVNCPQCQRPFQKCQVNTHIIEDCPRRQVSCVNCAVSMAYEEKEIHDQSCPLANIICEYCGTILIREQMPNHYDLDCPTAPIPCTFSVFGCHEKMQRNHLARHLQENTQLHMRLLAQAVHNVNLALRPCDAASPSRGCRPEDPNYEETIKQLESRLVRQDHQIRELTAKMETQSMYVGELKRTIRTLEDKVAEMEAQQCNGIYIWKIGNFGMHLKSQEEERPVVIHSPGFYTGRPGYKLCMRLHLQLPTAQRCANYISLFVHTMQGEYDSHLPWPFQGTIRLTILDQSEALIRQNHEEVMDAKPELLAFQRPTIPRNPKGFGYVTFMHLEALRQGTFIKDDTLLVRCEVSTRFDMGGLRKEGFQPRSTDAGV

[2] = target: Fc-receptor common γ subunit (FcRγ) (mouse (endogenous in BMMs)) (UniProt P20491); test: as above

Q: Which results are given for “Src homology region 2 domain-containing phosphatase-1 (SHP-1) (from UniProt P29351 1-595) (enzyme)”?
A: binding [1]: binds; binding [2]: binds
